The target of experiment [1] is VSX2 (endogenous, mouse P0 retina) (mouse (endogenous in C57BL/6J P0 retinae)) (UniProt Q61412). The experiment can be described thus: co-IP; endogenous, reciprocal IPs; native lysates of C57BL/6J P0 retinae in co-IP buffer (PBS, 10% glycerol, 0.6% Triton X-100); specific antibodies or control IgG overnight at 4°C; protein G magnetic beads; western blot. (In general: A western blot detects proteins with antibodies after separation by electrophoresis.)

The chains behind the UniProt entries cited, without tags or fusion partners.
UniProt Q61412: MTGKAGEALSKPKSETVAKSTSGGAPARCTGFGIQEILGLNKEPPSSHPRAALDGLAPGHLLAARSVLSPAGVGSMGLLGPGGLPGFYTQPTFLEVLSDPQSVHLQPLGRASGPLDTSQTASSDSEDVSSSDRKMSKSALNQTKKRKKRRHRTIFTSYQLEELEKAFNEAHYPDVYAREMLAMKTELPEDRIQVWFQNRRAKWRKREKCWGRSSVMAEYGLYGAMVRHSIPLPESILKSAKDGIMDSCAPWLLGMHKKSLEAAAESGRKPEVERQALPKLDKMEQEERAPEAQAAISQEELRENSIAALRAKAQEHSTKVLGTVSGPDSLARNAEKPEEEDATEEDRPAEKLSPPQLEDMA
UniProt P58304: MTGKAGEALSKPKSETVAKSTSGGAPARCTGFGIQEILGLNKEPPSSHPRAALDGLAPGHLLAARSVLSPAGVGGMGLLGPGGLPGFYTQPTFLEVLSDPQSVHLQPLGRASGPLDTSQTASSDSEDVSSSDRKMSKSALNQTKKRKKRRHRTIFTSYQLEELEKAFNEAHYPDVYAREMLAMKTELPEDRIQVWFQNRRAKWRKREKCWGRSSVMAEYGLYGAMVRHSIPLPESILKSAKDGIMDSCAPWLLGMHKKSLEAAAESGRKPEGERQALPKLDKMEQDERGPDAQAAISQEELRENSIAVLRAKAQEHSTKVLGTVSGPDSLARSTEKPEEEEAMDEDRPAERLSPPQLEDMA
UniProt P48432: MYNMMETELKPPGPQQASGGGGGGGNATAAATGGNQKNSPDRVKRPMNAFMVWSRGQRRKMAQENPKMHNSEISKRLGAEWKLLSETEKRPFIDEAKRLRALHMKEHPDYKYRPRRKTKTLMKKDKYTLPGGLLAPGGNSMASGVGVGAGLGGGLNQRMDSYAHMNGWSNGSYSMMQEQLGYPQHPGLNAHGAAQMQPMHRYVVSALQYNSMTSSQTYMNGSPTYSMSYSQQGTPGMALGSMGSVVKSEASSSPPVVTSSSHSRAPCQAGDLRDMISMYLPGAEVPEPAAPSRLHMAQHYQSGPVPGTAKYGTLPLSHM
UniProt P48431: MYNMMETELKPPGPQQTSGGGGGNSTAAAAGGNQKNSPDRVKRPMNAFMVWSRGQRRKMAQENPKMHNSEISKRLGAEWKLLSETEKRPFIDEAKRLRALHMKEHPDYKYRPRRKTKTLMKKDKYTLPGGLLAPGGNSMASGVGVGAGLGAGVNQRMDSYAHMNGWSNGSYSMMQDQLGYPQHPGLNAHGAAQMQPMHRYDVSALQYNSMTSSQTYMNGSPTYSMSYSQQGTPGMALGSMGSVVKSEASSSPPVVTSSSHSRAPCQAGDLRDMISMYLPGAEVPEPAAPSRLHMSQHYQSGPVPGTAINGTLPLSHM

For experiment [2], the target named is VSX2 (human) (UniProt P58304). The experiment can be described thus: co-IP; lysates of HEK-293T cells co-expressing VSX2 and SOX2; lysis in 300 mM NaCl, 1% NP-40 buffer diluted with an equal volume of no-salt buffer; 500 ug protein with primary antibody overnight at 4°C; protein G magnetic beads; washes in 150 mM NaCl buffer; western blot.

No constants are given. Whether binding was seen depends on the method and setting. In cells and extracts the contact can be indirect. Some entries that bind do so weakly or less than the wild type.

Regarding “SOX2 (endogenous, mouse P0 retina) (from UniProt P48432 1-319)”, the binding result in experiment [1] is given as “binds”.

For the substance SOX2 (from UniProt P48431 1-317), the binding result in experiment [2] was “binds”.

The values are drawn from publication PMC12687333.
